Test results reported in PubChem BioAssay AID2685 (National Center for Advancing Translational Sciences (NCATS), 2010).
Some of the results follow. Shown are side measurements of this screen, not its main read-out; they come without a call. Most of these compounds were active or inconclusive in the main read-out, so they are no random draw. Potencies come from curve fits of mixed quality, noted in brackets.

Assay: qHTS Assay for Lipid Storage Modulators in Drosophila S3 Cells;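 as to cell number change: cells counted by Cell Tracker Red CMTPX staining in the red channel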
Details: BODIPY lipid droplet fluorescence, 18-24 h; for cell number change: measured here: cell count max response, cells fed with added oleic acid
Summary of the method: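 Drosophila S3 cells loaded with oleic acid (400 uM, as added) and compounds at several concentrations; lipid droplets imaged by 488-nm laser-scanning cytometry, 500–530 nm intensity and object ratio to cell channel. Percent activity normalized to 20 uM Triacsin C.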

[1] = measured here: cell number channel AC50, cells fed with added oleic acid
[2] = measured here: lipid fluorescence (Fed channel) AC50, cells fed with added oleic acid

| SMILES | cell number change | AC50 [1] | AC50 [2] |
| --- | --- | --- | --- |
| CC(Sc1nnc(COc2ccc(Cl)cc2)o1)C(=O)Nc1ccc(N2CCOCC2)cc1 (stereo not drawn) | -94.3% | 4.61 µM [falling, full curve] | 2.91 µM [falling, single point] |
| COc1ccc(Cn2c(C(C)C)nc3sc4ccccc4c(=O)c3c2=O)cc1 | 10.1% | 0.461 µM [rising, full curve, poor fit] | 1.16 µM [rising, full curve, poor fit] |
| CC(C)(C)C(=O)NNC(=O)C1CC1(c1ccccc1)c1ccccc1 (stereo not drawn) | -10.7% |  | 0.517 µM [falling, full curve] |
| CCC(C)(NC(=O)CNC(C)=O)C(=O)NC1CCCCC1 (stereo not drawn) | -8.36% | 0.291 µM [falling, full curve, poor fit] | 29.1 µM [falling, single point] |
| CCCOc1ccc(-c2nc3c(c(=O)[nH]c(=O)n3Cc3ccccc3)n2CCO)cc1OCC | 8.4% |  | 29.1 µM [falling, single point] |
| COc1cc(/C=C/C(=O)O)cc(S(=O)(=O)Nc2cccc(SC)c2)c1OC | -16.7% | 1.16 µM [rising, full curve] |  |
| O=c1c(C(c2ccccc2)c2c(O)sc3ccccc3c2=O)c(O)sc2ccccc12 |  | 0.103 µM [rising, full curve, poor fit] |  |
| CCOC(=O)c1cc2sccc2n1CC(=O)N1c2ccccc2CC1C (stereo not drawn) | -46.4% | 7.31 µM [falling, partial curve] | 20.6 µM [falling, single point] |
| Cc1cc(=O)oc2cc(OCC(=O)NC3CCCCC3)ccc12 | -3.85% |  |  |
| C/C(=N\NC(=O)c1ccc(Cl)cc1)c1ccccn1 | -43.7% | 3.26 µM [falling, full curve, poor fit] | 3.66 µM [falling, full curve] |
| Cc1ccccc1NC(=O)OCc1cccnc1Sc1ccc(Cl)cc1 | -16.3% |  | 0.058 µM [falling, full curve, poor fit] |
| CCOc1ccc(NC(=O)CN(C)C(=O)CCCOc2ccc(Cl)c(C)c2)cc1OCC | -2.64% |  | 29.1 µM [falling, single point] |
| CCCCSc1nnc(-c2ccccc2NC(C)=O)c(=O)[nH]1 | -20.8% |  |  |
| O=C1C(Cl)=C(NCCN2CCOCC2)C(=O)c2ccccc21 | -46.8% | 1.64 µM [falling, partial curve, poor fit] |  |
| CCOC(=O)N/N=C(\CCC(=O)O)c1cccs1 | 10.7% | 0.103 µM [falling, single point] | 4.11 µM [falling, single point] |
| O=C(CCC1=NS(=O)(=O)c2ccccc2N1)NC1CCCCCCC1 | -21.2% |  |  |
| CSc1nc2cc(S(=O)(=O)N3CCCCC3)ccc2s1 | 2.34% | 1.84 µM [rising, partial curve, poor fit] | 1.84 µM [rising, partial curve] |
| O=C(CN1CCOCC1)Nc1ccc(OCc2ccccc2)cc1 | -14.9% |  | 0.103 µM [falling, single point] |
| Cc1cc(C)c(S(=O)(=O)N2CCc3ccccc32)c(C)c1 | -6.22% |  | 29.1 µM [falling, single point] |

| SMILES | cell number change | AC50 [1] | AC50 [2] |
| --- | --- | --- | --- |
| CC1CN(CCOc2ccccc2C(C)C)CC(C)O1 (stereo not drawn) | -6.74% |  | 3.26 µM [falling, full curve, poor fit] |
| CCc1ccc(Cn2nnc(C(=O)Nc3ccc(OC)cc3OC)c2N)cc1 | -8.4% |  | 0.366 µM [rising, partial curve, poor fit] |
| COc1cc(CNc2nc(C)c([N+](=O)[O-])c(C)c2C#N)cc(OC)c1OC | -0.482% |  | 0.13 µM [rising, full curve, poor fit] |
| NNC(=O)CC12CC3CC(C1)CC(n1ncnn1)(C3)C2 | -21% |  | 0.13 µM [falling, full curve, poor fit] |
| Cc1cc(N2C(=O)C(O)=C(C(=O)c3ccco3)C2c2cccnc2)no1 (stereo not drawn) | -12.5% |  | 1.16 µM [falling, full curve] |
| C=CCOc1ccc(/C(O)=C2\C(=O)C(=O)N(CCCOC)C2c2ccc(O)c(OC)c2)cc1 (stereo not drawn) | 133% | 29.1 µM [rising, partial curve] | 0.103 µM [rising, partial curve, poor fit] |
| Cc1ccc(NC(=O)CCc2nc3sc4c(c3c(=O)[nH]2)CCCC4)c(Br)c1 | 23.5% |  |  |
| COC(=O)C(C)N(C(=O)c1cccc2ccccc12)c1c(C)cccc1C (stereo not drawn) | -49.4% |  | 1.84 µM [falling, partial curve] |
| Cc1ccc(S(=O)(=O)NCCC(=O)NCC(c2cccs2)N(C)C)cc1 (stereo not drawn) | -2.33% |  | 0.00461 µM [rising, full curve, poor fit] |
| O=C(Nc1c2c(nn1-c1ccccc1)CS(=O)(=O)C2)c1ccccc1C(F)(F)F | -13.6% |  | 0.00461 µM [falling, full curve, poor fit] |
| COc1ccc(NC(=O)COC(=O)CN2C(=O)c3ccccc3C2=O)cc1 | 0.173% |  | 4.61 µM [falling, single point] |
| Cn1nc(C(=O)NCc2ccccc2Cl)c2c1-c1ccccc1S(=O)(=O)C2 | 92.1% | 29.1 µM [rising, single point] | 20.6 µM [rising, single point] |
| Cc1cc2cc(CNC(=O)c3ccc(Br)o3)ccc2n1C | -19% |  | 18.4 µM [falling, single point] |
| COc1ccc(COC(=O)C2CCN(S(=O)(=O)c3cccs3)CC2)cc1 | 64.3% | 13 µM [rising, partial curve, poor fit] | 29.1 µM [rising, partial curve] |
| CCc1nnc(NS(=O)(=O)c2ccc(N/C=C/C(=O)c3ccc(C)cc3)cc2)s1 | -4.25% |  | 0.731 µM [falling, full curve] |
| COc1ccc(CS(=O)(=O)/C(Cl)=C(/Cl)C(=O)Nc2ccc(OC)nc2)cc1 | -76.4% | 13 µM [falling, partial curve] | 11.6 µM [falling, partial curve] |
| Cc1ccc(C(=O)CSc2nc3cccnc3n2C)cc1 | -114% | 32.6 µM [falling, partial curve] |  |
| Cc1nnc(SCC(=O)Nc2nc(-c3ccccc3)cs2)n1N | 15.6% |  | 0.82 µM [rising, full curve, poor fit] |
| COC(=O)c1sc2ccccc2c1NC(=O)c1ccc(S(=O)(=O)N2CCCCC2)cc1 | -6.12% |  |  |

| SMILES | cell number change | AC50 [1] | AC50 [2] |
| --- | --- | --- | --- |
| Cc1cc(C(=O)OCC(=O)N(C)C2CCS(=O)(=O)C2)c(C)n1-c1ccccc1 (stereo not drawn) | 3.01% |  | 1.16 µM [falling, partial curve] |
| O=C(CCl)N1CCN(CC(=O)N2CCCC2)CC1 | 7.91% |  | 9.2 µM [rising, partial curve] |
| CNC(=O)c1nc(C)n(-c2cc(Cl)cc(Cl)c2)n1 |  |  | 0.92 µM [falling, partial curve, poor fit] |
| CC(C)(C)c1cc(C(=O)C[n+]2ccc(C(=O)NCCCO)cc2)cc(C(C)(C)C)c1O | -36.6% | 0.326 µM [falling, full curve] | 14.6 µM [falling, partial curve] |
| CNC(=O)c1ccc(=O)n(Cc2cccc(C(F)(F)F)c2)c1 | -23% |  | 18.4 µM [rising, single point] |
| O=S(=O)(Cc1cc(N2CCOCC2)nc(-c2ccccn2)n1)c1ccccc1 | 0.678% | 6.51 µM [falling, single point] |  |
| [O-][n+]1onc2c1C(N1CCOCC1)CCC2N1CCOCC1 (stereo not drawn) | -67.4% | 0.461 µM [falling, full curve] | 4.11 µM [falling, full curve] |
| COc1cccc(OC)c1NC(=O)CN1CCN(C)CC1 | -19.6% |  | 20.6 µM [falling, single point] |
| C#CCNc1nc(C(C)C)nc2c1nnn2Cc1ccccc1F | -21.1% |  | 0.58 µM [rising, full curve, poor fit] |
| COc1ccc(-c2nnc(NC(=O)c3ccccc3C)o2)cc1 | -59.4% | 23.1 µM [falling, partial curve, poor fit] | 16.4 µM [falling, partial curve] |
| CCN(CC)c1nc2c(c(=O)[nH]c(=O)n2C)n1CCOc1ccccc1 | -16.1% |  |  |
| CC(C)[C@H](NS(=O)(=O)c1ccc2c(c1)OCCO2)C(=O)OCC(=O)Nc1cc(Cl)ccc1Cl | -14.4% |  | 20.6 µM [falling, single point] |
| CC1=Nc2cc(C(=O)NCCCN3CCOCC3)ccc2Sc2c(C)ccc(C)c21 | 2.75% |  | 4.11 µM [rising, single point] |
| COCCN(CCOC)C(=S)Nc1cc(S(=O)(=O)N(C)C)ccc1C | 80.6% | 32.6 µM [rising, partial curve, poor fit] | 0.00461 µM [rising, full curve, poor fit] |
| NS(=O)(=O)c1ccc(NC(=S)N2CCN(c3cccc(Cl)c3)CC2)cc1 | -13.6% |  |  |
| CCOc1ccc(-n2c(=O)[nH]c3sc4c(c3c2=O)CCCC4)cc1 | 8.09% | 0.146 µM [falling, full curve, poor fit] |  |
| CCOc1cccc(-c2c(C(=O)N/N=C/c3ccc(C)s3)nnn2-c2nonc2N)c1 | -23.3% | 2.91 µM [falling, partial curve, poor fit] | 6.51 µM [falling, partial curve] |
| Cc1ccc(C(=O)C2=C(O)C(=O)N(Cc3cccnc3)C2c2ccc(Cl)c(Cl)c2)o1 (stereo not drawn) | -1.28% |  |  |

Gathered by group: the entries above containing a tert-butyl group.

| SMILES | cell number change | AC50 [1] | AC50 [2] |
| --- | --- | --- | --- |
| CC(C)(C)C(=O)NNC(=O)C1CC1(c1ccccc1)c1ccccc1 (stereo not drawn) | -10.7% |  | 0.517 µM [falling, full curve] |
| CC(C)(C)c1cc(C(=O)C[n+]2ccc(C(=O)NCCCO)cc2)cc(C(C)(C)C)c1O | -36.6% | 0.326 µM [falling, full curve] | 14.6 µM [falling, partial curve] |
